PubChem BioAssay AID1259424, University of Nebraska Medical Center – 2018

Test: 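Rank knockdowns across the genome by resemblance to the KSR1 depletion profile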 (primary screen)
Cells: human HCT116 colon cancer cells
Reagents: siRNA pool against human genes, 50 nM
Measurement: 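Log2 levels of six mRNAs (branched-DNA multiplex), adjusted by two reference genes and the non-targeting median, then scored against the average KSR1 knockdown pattern as Pearson r and euclidean distance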
Reading the numbers: mean correlation with KSR1 profile and KSR1 correlation: higher = expression change more like KSR1 knockdown; mean distance from KSR1 profile: higher = expression change less like KSR1 knockdown
This is a random part of about 14,000 deposited reagents. 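Higher correlation or smaller distance means closer resemblance to KSR1 loss; control wells, including KSR1 knockdowns, recur on many plates.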 Some reagents were tested in more than one well and are listed for each. No sequences are given here. The record does not give: the time to read-out.

no.	Target gene	mean correlation with KSR1 profile	mean distance from KSR1 profile	KSR1 correlation, replicate 1	KSR1 correlation, replicate 2	KSR1 correlation, replicate 3
1	HSD17B4	0.0871	2.26	0.161	-0.0981	-0.11
2	TTLL12	-0.373	1.95	-0.279	-0.474	-0.387
3	GUCY2F	0.293	1.91	0.238	0.0458	0.18
4	TLR6	-0.277	3.23	-0.0594	-0.117	-0.773
5	CELA2B	-0.747	2.01	-0.579	-0.541	-0.763
6	BRINP1	-0.379	2.01	-0.516	-0.424	-0.41
7	PIK3CB	-0.269	2.44	0.151	-0.131	-0.405
8	PIK3CB	0.424	1.53	0.528	0.458	0.0312
9	PRR5L	0.785	1.3	0.824	0.859	0.28
10	ZDHHC13	-0.751	1.55	-0.694	-0.642	-0.816
11	NLE1	0.385	2.46	-0.128	0.458	0.394
12	SULF2	-0.0342	2.5	0.00807	-0.156	-0.00997
13	HPX	-0.567	1.8	-0.494	-0.72	-0.616
14	MED12	-0.0423	3.1	0.171	-0.0801	-0.234
15	RBM12	-0.0263	1.82	-0.109	-0.126	0.169
16	ITGA11	-0.191	2.9	-0.247	-0.131	-0.38
17	ATF7IP2	-0.00719	3.1	-0.0585	-0.166	0.0666
18	MOG	0.00144	3.18	0.0294	-0.055	-0.111
19	ATP1B4	-0.33	2.26	-0.336	-0.409	-0.0836
20	CA10	-0.627	6.42	-0.179	-0.265	-0.409
21	PLAAT1	0.3	4.19	0.0627	0.241	0.69
22	BCR	-0.0512	1.89	0.205	-0.426	-0.31
23	PKLR	-0.00677	3.76	0.13	0.12	0.0586
24	ZFY	-0.212	3.52	-0.0328	-0.211	-0.0715
25	KLHL1	0.782	1.02	0.836	0.496	0.718
26	FLT3	0.139	3.55	0.134	0.0819	-0.0757
27	CD2	-0.388	1.42	-0.257	-0.487	-0.204
28	SBF1	-0.254	1.57	-0.155	-0.461	-0.104
29	RUNX2	-0.0348	2.67	0.0507	0.259	-0.102
30	SEC24A	0.115	1.3	-0.0846	0.119	0.278
31	MKRN1	0.0352	3.28	0.318	0.00602	-0.19
32	ISY1	0.149	2.17	-0.682	0.49	0.481
33	RBM42	0.448	1.42	0.296	0.132	0.352
34	KLF4	0.0138	2.33	0.45	0.115	-0.251
35	RAPGEF2	-0.543	2.32	-0.545	-0.519	-0.589
36	GPALPP1	-0.878	1.38	-0.775	-0.945	-0.83
37	CYTL1	-0.000941	2.34	0.171	-0.0651	-0.155
38	CCL20	0.227	1.28	0.384	-0.0173	0.247
39	SAR1B	-0.611	2.52	-0.433	-0.59	-0.643
40	ERN2	-0.169	1.55	-0.486	0.00357	-0.339
41	ZEB2	0.294	1.95	-0.0687	-0.0842	0.538
42	CRMP1	-0.503	2.64	-0.566	-0.107	-0.408
43	MYH2	-0.19	2.25	-0.382	-0.599	-0.0792
44	SAMHD1	-0.137	1.78	-0.0473	-0.302	-0.0135
45	EPHA3	0.721	2.71	0.613	0.786	0.529
46	CRADD	-0.385	2.37	-0.361	-0.457	-0.255
47	TRDN	-0.275	2.37	-0.163	-0.218	-0.293
48	CRISP3	-0.147	0.954	-0.359	-0.123	-0.167
49	RAMP1	0.317	2.65	0.366	0.42	0.253
50	PCNT	-0.505	3.79	-0.416	-0.334	-0.636
